The list shows a part of the results.
Target: T1, OsSMF1 (Oryza sativa, UniProt Q6ZLB0 1-436)
T1 sequence: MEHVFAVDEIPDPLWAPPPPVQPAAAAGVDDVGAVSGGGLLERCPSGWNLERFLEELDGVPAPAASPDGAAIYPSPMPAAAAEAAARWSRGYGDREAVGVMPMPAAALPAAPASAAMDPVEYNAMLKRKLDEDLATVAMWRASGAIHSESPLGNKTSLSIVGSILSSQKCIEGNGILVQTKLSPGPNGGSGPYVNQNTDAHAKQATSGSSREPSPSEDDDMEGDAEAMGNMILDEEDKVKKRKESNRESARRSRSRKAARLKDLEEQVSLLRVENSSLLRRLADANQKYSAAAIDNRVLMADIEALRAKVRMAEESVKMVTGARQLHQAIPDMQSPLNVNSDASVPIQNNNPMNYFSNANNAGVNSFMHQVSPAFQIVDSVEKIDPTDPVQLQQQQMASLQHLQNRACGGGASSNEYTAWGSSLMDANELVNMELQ
Experiment: protein-binding microarray (RPBM); PBS, 2% BSA, 51.3 ng/ul salmon testes DNA, 50 uM zinc acetate, 200 nM TF, 25 C, 1 h; high values mean tight binding
Settings: protein: recombinant; tags: N-terminal polyhistidine and DsRed monomer fusion (pET32a); chain copies: 2; label: CyDye5-dUTP incorporated in the synthesized complementary strand; 3' TTTTT single-stranded linker to array surface; dsDNA, one strand shown
Summary of the method: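 Binding signal here means per-feature fluorescence intensity in arbitrary units. The values were read on an Axon 4000B scanner after a custom Agilent array, double-stranded by primer extension with Cy5-dUTP, was incubated with 200 nM protein at 25 °C for 1 h in PBS with 2% BSA, salmon testes DNA and 50 µM zinc acetate, then washed. The proteins were transcription factors with an N-terminal polyhistidine tag and DsRed, expressed in E. coli BL21-CodonPlus and purified on Ni–NTA.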

Row | Sequence | binding signal
1 | ACATGTGGGCCCTACATCCCAGCCGGTCCACGTCGGTTCACGGAGTCACCTAGTGCAG | 8510 fluorescence intensity (a.u.)
2 | GTGTAAATATGAAATACATTCTCACAAAATCTTTTGTTCACGGAGTCACCTAGTGCAG | 16300 fluorescence intensity (a.u.)
3 | AACAAATAAGAGAGAGAAAGAACATCAAATCTCTCTTTCTCGGAGTCACCTAGTGCAG | 16900 fluorescence intensity (a.u.)
4 | GAGTGCCATGTATGCATCCACGTAGGATCAAAACTGCCCTCGGAGTCACCTAGTGCAG | 17000 fluorescence intensity (a.u.)
5 | ACTTGTTATCTGGCCTCTCCGCCATGTGACCCATGGAAATCGGAGTCACCTAGTGCAG | 3250 fluorescence intensity (a.u.)
6 | AAGGCGGAGGAGGAGTTGTGGCCGACTGACTTTGGCCCGTCGGAGTCACCTAGTGCAG | 3150 fluorescence intensity (a.u.)
7 | AACAGTTAGTGATCGCTAGATCCAGCAATAAACAACCCAGCGGAGTCACCTAGTGCAG | 33100 fluorescence intensity (a.u.)
8 | AAAATTTAAAATTGGGTACATCAACACAGGCAAACCATATCGGAGTCACCTAGTGCAG | 3200 fluorescence intensity (a.u.)
9 | AGTCAATCGTGCCAGTCTGACTCGAATCGTCGGTCGTTCTCGGAGTCACCTAGTGCAG | 3590 fluorescence intensity (a.u.)
10 | GGAATTGTGTTCTGTCTATTGATATGAGTGACTAATTGACCGGAGTCACCTAGTGCAG | 3620 fluorescence intensity (a.u.)
11 | GTCTTGCTGCTGACGCCAATGCGTTCCGGGAATTCTTCAACGGAGTCACCTAGTGCAG | 4950 fluorescence intensity (a.u.)
12 | AATTTTAAGTGTGCTTCGTCACTGGTTGTGAGCGAGTATTCGGAGTCACCTAGTGCAG | 6110 fluorescence intensity (a.u.)
13 | TCGATGAAACTGCTACCAAATAAACACGTTGGCATGTGATCGGAGTCACCTAGTGCAG | 4500 fluorescence intensity (a.u.)
14 | CCTTCCACATATGCTCATTCGAAAGTAACAAATTCACTCGCGGAGTCACCTAGTGCAG | 3190 fluorescence intensity (a.u.)
15 | AGGGCAGCGGCCTCGTCACCGTCGCCACCTTCGCCTCCATCGGAGTCACCTAGTGCAG | 7360 fluorescence intensity (a.u.)
16 | ACTGTCCAGATTTACGGATCCTGACAAGGACACGTCATGCCGGAGTCACCTAGTGCAG | 13800 fluorescence intensity (a.u.)
17 | GCCGATTCGGCGATTGCATCAGACTGACCAACAAGATACACGGAGTCACCTAGTGCAG | 3200 fluorescence intensity (a.u.)
18 | CGCCGCCGCCGTCGCTGCCGCCGCCGCCGCCGCCTAGGGTCGGAGTCACCTAGTGCAG | 29300 fluorescence intensity (a.u.)
19 | AGAGCCTGCGCCACCAACTCTACTGTACTGAGCAGAGTAGCGGAGTCACCTAGTGCAG | 38300 fluorescence intensity (a.u.)
20 | ACCGGCCACATACCGCCGGTTAGACCGGCTTTCAAGCCGCCGGAGTCACCTAGTGCAG | 18000 fluorescence intensity (a.u.)
21 | ATATTCATCTATACTTTTATATGTCATGGTTGTTAACCCACGGAGTCACCTAGTGCAG | 3490 fluorescence intensity (a.u.)

A few values from above:
ACATGTGGGCCCTACATCCCAGCCGGTCCACGTCGGTTCACGGAGTCACCTAGTGCAG | binding signal: 8510 fluorescence intensity (a.u.)
GTGTAAATATGAAATACATTCTCACAAAATCTTTTGTTCACGGAGTCACCTAGTGCAG | binding signal: 16300 fluorescence intensity (a.u.)
GAGTGCCATGTATGCATCCACGTAGGATCAAAACTGCCCTCGGAGTCACCTAGTGCAG | binding signal: 17000 fluorescence intensity (a.u.)

The list continues.

Row | Sequence | binding signal
22 | GTGGGGAAGGAGATTGCCAAGGTTCCAAGCCCAGAACCAGCGGAGTCACCTAGTGCAG | 4300 fluorescence intensity (a.u.)
23 | TATCTGGATAAATTCACCTCCCTTGTGTGGAATAGTAATGCGGAGTCACCTAGTGCAG | 3670 fluorescence intensity (a.u.)
24 | TTTACTGTAGCACCACATTGTCAAATTATGACGTAATTAGCGGAGTCACCTAGTGCAG | 5440 fluorescence intensity (a.u.)
25 | GGGATTAATCCAAACTAATCCACATCAACCTGCACCAATCCGGAGTCACCTAGTGCAG | 4780 fluorescence intensity (a.u.)
26 | CTCCTACATGCACTCCCCTCTACAAAACCACAACCAGCATCGGAGTCACCTAGTGCAG | 3600 fluorescence intensity (a.u.)
27 | ATAAGCTCAAGATCTCTTTCTTTTCTCACTTTGCACGATTCGGAGTCACCTAGTGCAG | 12700 fluorescence intensity (a.u.)
28 | TCTGTATATATTACTACTTGCGTTTCTCTTTCTTTCTTCCCGGAGTCACCTAGTGCAG | 3150 fluorescence intensity (a.u.)
29 | GCTCCAAACCTTAGATATACTGCTGCGGCGCCTCCGAGCTCGGAGTCACCTAGTGCAG | 3380 fluorescence intensity (a.u.)
30 | TCCATCTCCTCCCTCCCCGGTGGGTGACGTCACGCCTTCGCGGAGTCACCTAGTGCAG | 30200 fluorescence intensity (a.u.)
31 | ATCTTCTGAATCTGAAGTGCTAAATTGTCAAAATATTAGTCGGAGTCACCTAGTGCAG | 3160 fluorescence intensity (a.u.)
32 | GCCCATGGTCCTATCCACGCCGCGTCAGGAGGAAGCAGAGCGGAGTCACCTAGTGCAG | 3230 fluorescence intensity (a.u.)
33 | CTAAAATGTAAAATATGATCTAGCGAAGGAGTAAAATGCACGGAGTCACCTAGTGCAG | 3810 fluorescence intensity (a.u.)
34 | GAGCTTTACGCCGGTTTATATTTTCGTACGCGGCCATTTGCGGAGTCACCTAGTGCAG | 3520 fluorescence intensity (a.u.)
35 | TAGAGAATGAAGTAAGGATGATATGTTTCGCTGACACATGCGGAGTCACCTAGTGCAG | 4520 fluorescence intensity (a.u.)
36 | ATGGGCCAGGCCGGGACGATGACGTAGTCTCCAACCGCCACGGAGTCACCTAGTGCAG | 6660 fluorescence intensity (a.u.)
37 | AGCTCGGCCATCGCCCACTCCACGGTGGTCGTCATCGTGTCGGAGTCACCTAGTGCAG | 3900 fluorescence intensity (a.u.)
38 | TAAGATGGTTTTGCTAGTACTTTGATACGTCATCCGTGTACGGAGTCACCTAGTGCAG | 5010 fluorescence intensity (a.u.)
39 | GTTAAGGACGTAGGATTGGAACGTCGATGCGACACTAAACCGGAGTCACCTAGTGCAG | 8730 fluorescence intensity (a.u.)
40 | TTGTGCCGAGGAAGTGATGGGATAACGTTAGTCACATAAACGGAGTCACCTAGTGCAG | 5890 fluorescence intensity (a.u.)
41 | ACTTCACCAGTTCACCACCGTGGCACTCCCTGGGACTGAACGGAGTCACCTAGTGCAG | 3640 fluorescence intensity (a.u.)
42 | ACGGTGATCGGGCACAAGCGGCGCCAGGACGAGGGCGGCGCGGAGTCACCTAGTGCAG | 21900 fluorescence intensity (a.u.)
